In all, about 1,300 compounds went through this assay and about 65 (5%) were called active.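 Rule for the calls: active = growth inhibition reaching a set limit at one or more tested doses; inactive = the rest.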 The list shows a part of the results. Potency and affinity values are given separately.

The assay can be described thus: wild-type E. coli BW25113 antibacterial activity – OD615, dose response (AID 638). The settings on record: at 100 µM (top of the series) unless noted. In outline: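 assay system = wild-type Escherichia coli strain BW25113 growth | medium = Kanamycin-supplemented LB broth | measured by = optical density (absorbance) at 615 nm | timing = bacterial exposure to compound 20 h at 37 °C | doses = compound concentration series | measure = IC50 from 4-parameter logistic, bounds fixed 0–100% | controls = chloramphenicol 30 µM control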
`CCCCC(=O)Nc1cccc(-c2nnc(-c3ccccc3)o2)c1`: the growth inhibition is inactive: 16.4%.

For the molecule `N#Cc1ccc(CSc2nnc(-c3cccs3)n2-c2ccccc2)cc1`, the growth inhibition was inactive: 15.4%.

As to `N#C/C(=C\c1ccco1)Sc1nc2ccccc2s1`, the growth inhibition is inactive: 9.99%.

For `CC(=O)Nc1nc2ccccc2n1Cc1ccccc1C`, the growth inhibition was inactive: 2.76%.

Regarding `O=C(Nc1ccc(Br)c(Cl)c1)c1ccco1`, the growth inhibition is inactive: 2.9%.

Turning to `O=C(CCCOc1ccc(Cl)cc1Cl)N1CCN(c2ccccn2)CC1`, the growth inhibition was inactive: -2.42%.

With `CC1CCCN(S(=O)(=O)c2ccc(C(=O)Nc3nnc(-c4ccccc4Cl)o3)cc2)C1` (centres undefined), the growth inhibition was inactive: 7.65%.

As for `O=C(OC1CCc2ccccc2C1=O)c1ccccc1O` (centres undefined), the growth inhibition is inactive: 9.44%.

Take `COc1cccc2sc(Nc3nc(-c4ccccn4)cs3)nc12`: the growth inhibition is inactive: -6.38%.

Regarding `Cc1cccc(NC(=O)CSc2nnc(-c3cc(C)n(-c4ccccc4)c3C)o2)c1C`, the growth inhibition is inactive: -5.48%.

Take `CCCCc1ccc(C2C(C#N)=C(N)SC(N)=C2C#N)s1`: the growth inhibition was inactive: 11.2%.

On to `CCCc1[nH]nc2c1C(c1ccc(OC)c(CSC3=NCCS3)c1)C(C#N)=C(N)O2` (centres undefined), for which the growth inhibition was inactive: 3.91%.

Regarding `CCOc1ccc(S(=O)(=O)Nc2cccc(Cl)c2)cc1`, the growth inhibition was active: 20%.

Turning to `COc1ccccc1N1CCN(C(=O)c2cc(-c3cccc(Cl)c3)on2)CC1`, the growth inhibition was inactive: -5.12%.

`CCOc1cc(S(=O)(=O)N2CCN(Cc3ccccc3)CC2)ccc1Br`: the growth inhibition was inactive: -2.34%.

On to `CCCCOC(=O)Nc1ccc(C(=O)OCCC)cc1`, for which the growth inhibition was inactive: 6.71%.

In the case of `Cc1ccc(-n2c(C)cc(C3N=C(N)Nc4nc5ccccc5n43)c2C)c(C)c1` (centres undefined), the growth inhibition is inactive: -3.91%.

For `CCOC(=O)C1CCN(C(c2cccnc2)c2c(NC(=O)c3ccco3)sc(C)c2C)CC1` (centres undefined), the growth inhibition was inactive: 0.02%.

On to `CCc1cc2c3c(c(=O)oc2cc1O)CCCC3`, for which the growth inhibition was inactive: -5.58%.

`CCOc1cc(-c2c(C#N)c(N)nc3c2CCCC3C)ccc1O` (centres undefined): the growth inhibition is inactive: 19.8%.

On to `O=C(Nc1cccc(C(F)(F)F)c1)N1CCC(c2nc(-c3ccc(F)cc3)no2)CC1`, for which the growth inhibition was inactive: 7.9%.

Consider `O=C(Nc1ccc(Cl)c(Cl)c1)OCc1cccnc1`, for which the growth inhibition was inactive: 3.14%.

As for `CC1(C)Cc2c(sc3c2c(=N)n(Cc2ccco2)c(=O)n3Cc2ccc(Cl)cc2)CO1`, the growth inhibition was inactive: 3.64%.

Regarding `CCCOc1ccc2oc(=O)c3c(c2c1)CCCN3C(=O)CN1CCc2ccccc2C1`, the growth inhibition is inactive: 0.92%.

For `CC1=C(C(=O)OCC(C)C)C(c2cc3c(cc2Br)OCO3)NC(=O)N1C` (centres undefined), the growth inhibition was inactive: 12.5%.

In the case of `CCCCc1ccc(Nc2nc(CCC)cc(=O)[nH]2)cc1`, the growth inhibition was inactive: -2.25%.

Consider `CCCOC(=O)c1ccc(Oc2cn[nH]c2-c2ccc(OCC)cc2O)cc1`, for which the growth inhibition is inactive: 8.01%.

As to `c1ccc(CN(Cc2ccco2)C(c2ccncc2)c2nnnn2C2CCCC2)cc1` (centres undefined), the growth inhibition was inactive: 6.5%.

Take `COc1cc(NS(=O)(=O)c2ccc(OC)c(C)c2C)c(OC)cc1Cl`: the growth inhibition was inactive: -16.7%.

`CCOC(=O)c1c(CN2CCOCC2)n(-c2ccccc2)c2ccc(O)cc12`: the growth inhibition was inactive: 4.11%.

With `O=C(NCc1ccco1)C(C(=O)c1ccc(F)cc1)n1ccccc1=O` (centres undefined), the growth inhibition was inactive: 12.3%.

As for `CC1CCc2c(C(=O)Oc3cccc(-n4cnnn4)c3)csc2C1` (centres undefined), the growth inhibition was inactive: -6.31%.

Take `CCCn1nnnc1NC(=O)CSc1ccc(Cl)cc1`: the growth inhibition was inactive: 16.7%.

`CCCC(=O)c1ccc(N2CCCCCC2)c(F)c1`: the growth inhibition is inactive: -2.91%.

In the case of `O=C1[C@H]2[C@@H](C(=O)N1c1cc(Cl)cc(Cl)c1)[C@]1(C(=O)Nc3ccccc31)N1CCC[C@@H]21`, the growth inhibition was inactive: 9.3%.

Regarding `O=C(CSc1nnc2scc(-c3ccccc3)n12)Nc1nsc(-c2ccccc2)n1`, the growth inhibition is inactive: -9.04%.

For the molecule `COc1ccc(C(=O)Nn2cnc3scc(-c4cccs4)c3c2=O)c(O)c1`, the growth inhibition was inactive: -5.59%.

Regarding `CC(C)C(C(=O)NCc1ccco1)N(C(=O)CNS(=O)(=O)c1ccc(Cl)cc1)C1CCCC1` (centres undefined), the growth inhibition was inactive: -7.52%.

Turning to `CCn1cc(C(=O)O)c(=O)c2cnc(N3CCN(C(=O)Nc4ccccc4)CC3)nc21`, the growth inhibition is inactive: 5.93%.

For the molecule `Cc1cc(N2CCCCC2)n2ncc(-c3ccccc3)c2n1`, the growth inhibition is inactive: 4.48%.

Turning to `COc1ccc(CN(C(=O)CN2C(=O)C(C)Oc3ccccc32)C2CCCC2)c(OC)c1` (centres undefined), the growth inhibition is inactive: -6.33%.

`c1ccc(-n2nnnc2Oc2cccc3cccnc23)cc1`: the growth inhibition was inactive: 2.63%.

Turning to `Cc1nn(-c2nc3ccccc3n2Cc2ccccc2)c2c1C(=O)CC(C)(C)C2`, the growth inhibition was inactive: -12.2%.

Consider `N#Cc1cn(CCOc2ccccc2F)c2ccccc12`, for which the growth inhibition was inactive: -0.93%.

As to `O=C(Nc1nnc(-c2cccs2)o1)c1cccc(Oc2ccccc2)c1`, the growth inhibition was inactive: 12.7%.

For `Cc1cccc(-n2ncc3c(N4CC(C)CC(C)C4)ncnc32)c1` (centres undefined), the growth inhibition was inactive: -9.68%.

With `c1coc(CN(Cc2cccs2)Cc2nnnn2C2CCCCC2)c1`, the growth inhibition was inactive: 2.37%.

As for `CC1=C(C(=O)OC2CCCC2)C(c2ccc(C)o2)C2=C(CC(c3cccs3)CC2=O)N1` (centres undefined), the growth inhibition is inactive: -3.96%.

With `COc1cc2cc(C(c3nnnn3C3CCCCC3)N(C)C3CCCCC3)c(=O)[nH]c2cc1OC` (centres undefined), the growth inhibition is inactive: 0.95%.

Take `COc1ccc2nc(NC(=O)C3CCCN(S(=O)(=O)c4cccs4)C3)sc2c1` (centres undefined): the growth inhibition was inactive: -21.6%.

Take `COc1ccc(CN(C(=O)CN2C(=O)COc3ccccc32)C2CCCC2)c(OC)c1`: the growth inhibition is inactive: 0.37%.

As to `CCCc1nc(SCC(=O)N2CCC(Cc3ccccc3)CC2)c2c(=O)n(C)c(=O)n(C)c2n1`, the growth inhibition was inactive: -7.24%.

As for `CCCCn1c(N2CCC(Cc3ccccc3)CC2)nc2c1c(=O)[nH]c(=O)n2C`, the growth inhibition is inactive: -1.49%.

`CC(C)n1c2ccccc2c2nc3ccccc3nc21`: the growth inhibition was inactive: -6.19%.

As for `O=C(CSc1nnnn1C1CCCCC1)Nc1nc2c(s1)CCCC2`, the growth inhibition is inactive: 5.16%.

As for `Cc1ccc(Cn2c(SCC(C)C)nc3c2c(=O)n(C)c(=O)n3C)cc1`, the growth inhibition was inactive: 10.5%.

Turning to `CCn1c(N2CCN(C(=O)C34CC5CC(CC(C5)C3)C4)CC2)nc2ccccc21`, the growth inhibition is inactive: 9.4%.

Consider `O=S(=O)(NCCSc1ccc(Cl)cc1)c1ccc2c(c1)OCCO2`, for which the growth inhibition was inactive: -0.01%.

Consider `CC1CCN(S(=O)(=O)c2ccc(Cl)cc2Br)CC1`, for which the growth inhibition is inactive: 15.1%.

(Values after PubChem BioAssay AID638 (SRMLSC, 2007).)
